In the supplement of paper PMC11732987, “Enantioselective OTUD7B fragment discovery through chemoproteomics screening and high-throughput optimisation” (Communications Chemistry, 2025):
Some of the results follow. The data scatter; read single values as rough.

Amino acid sequences for entries named in this document (tags omitted). A change or cut given only in a name is not applied to a line headed by its entry. Residues count along the entry.
UniProt P07919: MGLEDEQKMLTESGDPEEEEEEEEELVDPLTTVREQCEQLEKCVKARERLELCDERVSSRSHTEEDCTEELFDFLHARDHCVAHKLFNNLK
UniProt Q9H269, 806-828: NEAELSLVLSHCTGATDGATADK
UniProt Q93008: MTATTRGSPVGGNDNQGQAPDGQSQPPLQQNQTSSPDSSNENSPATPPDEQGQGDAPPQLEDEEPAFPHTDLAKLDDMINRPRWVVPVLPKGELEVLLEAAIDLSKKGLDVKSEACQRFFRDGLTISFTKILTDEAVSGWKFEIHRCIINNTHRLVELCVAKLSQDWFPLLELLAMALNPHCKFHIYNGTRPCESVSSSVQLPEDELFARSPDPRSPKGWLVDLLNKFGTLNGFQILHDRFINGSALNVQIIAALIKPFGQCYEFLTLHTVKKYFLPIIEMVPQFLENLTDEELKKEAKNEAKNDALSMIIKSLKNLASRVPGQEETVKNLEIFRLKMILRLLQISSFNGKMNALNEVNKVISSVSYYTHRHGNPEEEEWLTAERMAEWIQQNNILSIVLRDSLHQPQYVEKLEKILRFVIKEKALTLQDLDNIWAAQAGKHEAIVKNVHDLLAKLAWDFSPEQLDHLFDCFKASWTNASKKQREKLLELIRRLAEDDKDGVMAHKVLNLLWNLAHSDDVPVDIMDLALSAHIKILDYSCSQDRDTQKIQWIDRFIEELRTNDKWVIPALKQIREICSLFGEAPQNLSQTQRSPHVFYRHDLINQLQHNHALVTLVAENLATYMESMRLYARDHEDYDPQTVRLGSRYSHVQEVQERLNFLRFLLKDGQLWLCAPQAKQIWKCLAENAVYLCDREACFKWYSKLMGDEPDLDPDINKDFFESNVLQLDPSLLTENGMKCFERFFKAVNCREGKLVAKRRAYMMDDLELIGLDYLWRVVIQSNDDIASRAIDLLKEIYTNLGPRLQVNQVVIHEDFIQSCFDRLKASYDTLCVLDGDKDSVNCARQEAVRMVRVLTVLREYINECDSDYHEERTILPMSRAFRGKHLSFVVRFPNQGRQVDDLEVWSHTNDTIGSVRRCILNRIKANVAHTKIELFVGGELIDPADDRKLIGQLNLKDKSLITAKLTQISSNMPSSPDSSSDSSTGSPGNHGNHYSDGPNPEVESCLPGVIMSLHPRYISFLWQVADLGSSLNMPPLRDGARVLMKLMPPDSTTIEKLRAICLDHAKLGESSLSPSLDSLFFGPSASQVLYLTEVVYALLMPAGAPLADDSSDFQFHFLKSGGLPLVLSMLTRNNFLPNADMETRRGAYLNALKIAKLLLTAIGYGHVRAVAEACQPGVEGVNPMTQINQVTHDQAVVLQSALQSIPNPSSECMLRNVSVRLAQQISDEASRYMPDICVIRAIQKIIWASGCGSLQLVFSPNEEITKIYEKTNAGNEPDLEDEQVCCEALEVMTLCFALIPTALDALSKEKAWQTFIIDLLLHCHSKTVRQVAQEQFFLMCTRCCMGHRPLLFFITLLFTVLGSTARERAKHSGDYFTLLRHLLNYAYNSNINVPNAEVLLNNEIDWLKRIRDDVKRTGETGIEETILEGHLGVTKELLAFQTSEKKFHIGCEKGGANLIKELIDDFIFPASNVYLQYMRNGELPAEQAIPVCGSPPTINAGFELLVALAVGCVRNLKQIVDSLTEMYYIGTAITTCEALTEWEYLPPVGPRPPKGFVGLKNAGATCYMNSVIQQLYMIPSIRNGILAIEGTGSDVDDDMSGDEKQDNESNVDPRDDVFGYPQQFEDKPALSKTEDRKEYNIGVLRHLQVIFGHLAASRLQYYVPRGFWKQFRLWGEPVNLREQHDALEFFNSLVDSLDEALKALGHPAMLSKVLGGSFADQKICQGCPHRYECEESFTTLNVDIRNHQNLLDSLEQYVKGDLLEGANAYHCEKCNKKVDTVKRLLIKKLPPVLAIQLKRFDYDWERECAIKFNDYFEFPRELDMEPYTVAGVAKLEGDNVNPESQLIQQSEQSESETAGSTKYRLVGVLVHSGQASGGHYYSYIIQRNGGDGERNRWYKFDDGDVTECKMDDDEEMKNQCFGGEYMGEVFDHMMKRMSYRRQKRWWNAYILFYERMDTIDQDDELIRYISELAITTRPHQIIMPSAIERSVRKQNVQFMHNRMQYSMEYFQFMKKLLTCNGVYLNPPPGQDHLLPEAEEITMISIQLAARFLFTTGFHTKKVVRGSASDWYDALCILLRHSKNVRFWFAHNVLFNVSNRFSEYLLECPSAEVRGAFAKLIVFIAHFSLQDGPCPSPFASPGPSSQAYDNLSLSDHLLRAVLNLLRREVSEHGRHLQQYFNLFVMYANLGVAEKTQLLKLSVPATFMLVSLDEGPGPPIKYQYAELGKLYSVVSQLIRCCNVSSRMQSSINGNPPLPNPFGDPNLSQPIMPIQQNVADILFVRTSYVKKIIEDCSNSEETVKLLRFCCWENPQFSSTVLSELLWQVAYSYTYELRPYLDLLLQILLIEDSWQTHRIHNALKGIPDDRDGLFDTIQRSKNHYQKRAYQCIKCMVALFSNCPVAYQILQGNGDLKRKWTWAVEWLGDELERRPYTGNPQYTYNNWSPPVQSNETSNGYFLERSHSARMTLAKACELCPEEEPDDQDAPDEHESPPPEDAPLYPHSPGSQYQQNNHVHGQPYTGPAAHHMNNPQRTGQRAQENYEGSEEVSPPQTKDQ
UniProt Q9Y277: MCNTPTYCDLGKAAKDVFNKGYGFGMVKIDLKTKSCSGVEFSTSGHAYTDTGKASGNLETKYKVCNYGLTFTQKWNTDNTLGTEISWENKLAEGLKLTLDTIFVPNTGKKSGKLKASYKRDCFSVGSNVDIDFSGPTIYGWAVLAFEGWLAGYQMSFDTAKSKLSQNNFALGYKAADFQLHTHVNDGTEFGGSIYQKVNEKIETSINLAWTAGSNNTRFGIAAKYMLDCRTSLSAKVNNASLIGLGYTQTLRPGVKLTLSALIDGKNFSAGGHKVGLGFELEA
UniProt Q70CQ2: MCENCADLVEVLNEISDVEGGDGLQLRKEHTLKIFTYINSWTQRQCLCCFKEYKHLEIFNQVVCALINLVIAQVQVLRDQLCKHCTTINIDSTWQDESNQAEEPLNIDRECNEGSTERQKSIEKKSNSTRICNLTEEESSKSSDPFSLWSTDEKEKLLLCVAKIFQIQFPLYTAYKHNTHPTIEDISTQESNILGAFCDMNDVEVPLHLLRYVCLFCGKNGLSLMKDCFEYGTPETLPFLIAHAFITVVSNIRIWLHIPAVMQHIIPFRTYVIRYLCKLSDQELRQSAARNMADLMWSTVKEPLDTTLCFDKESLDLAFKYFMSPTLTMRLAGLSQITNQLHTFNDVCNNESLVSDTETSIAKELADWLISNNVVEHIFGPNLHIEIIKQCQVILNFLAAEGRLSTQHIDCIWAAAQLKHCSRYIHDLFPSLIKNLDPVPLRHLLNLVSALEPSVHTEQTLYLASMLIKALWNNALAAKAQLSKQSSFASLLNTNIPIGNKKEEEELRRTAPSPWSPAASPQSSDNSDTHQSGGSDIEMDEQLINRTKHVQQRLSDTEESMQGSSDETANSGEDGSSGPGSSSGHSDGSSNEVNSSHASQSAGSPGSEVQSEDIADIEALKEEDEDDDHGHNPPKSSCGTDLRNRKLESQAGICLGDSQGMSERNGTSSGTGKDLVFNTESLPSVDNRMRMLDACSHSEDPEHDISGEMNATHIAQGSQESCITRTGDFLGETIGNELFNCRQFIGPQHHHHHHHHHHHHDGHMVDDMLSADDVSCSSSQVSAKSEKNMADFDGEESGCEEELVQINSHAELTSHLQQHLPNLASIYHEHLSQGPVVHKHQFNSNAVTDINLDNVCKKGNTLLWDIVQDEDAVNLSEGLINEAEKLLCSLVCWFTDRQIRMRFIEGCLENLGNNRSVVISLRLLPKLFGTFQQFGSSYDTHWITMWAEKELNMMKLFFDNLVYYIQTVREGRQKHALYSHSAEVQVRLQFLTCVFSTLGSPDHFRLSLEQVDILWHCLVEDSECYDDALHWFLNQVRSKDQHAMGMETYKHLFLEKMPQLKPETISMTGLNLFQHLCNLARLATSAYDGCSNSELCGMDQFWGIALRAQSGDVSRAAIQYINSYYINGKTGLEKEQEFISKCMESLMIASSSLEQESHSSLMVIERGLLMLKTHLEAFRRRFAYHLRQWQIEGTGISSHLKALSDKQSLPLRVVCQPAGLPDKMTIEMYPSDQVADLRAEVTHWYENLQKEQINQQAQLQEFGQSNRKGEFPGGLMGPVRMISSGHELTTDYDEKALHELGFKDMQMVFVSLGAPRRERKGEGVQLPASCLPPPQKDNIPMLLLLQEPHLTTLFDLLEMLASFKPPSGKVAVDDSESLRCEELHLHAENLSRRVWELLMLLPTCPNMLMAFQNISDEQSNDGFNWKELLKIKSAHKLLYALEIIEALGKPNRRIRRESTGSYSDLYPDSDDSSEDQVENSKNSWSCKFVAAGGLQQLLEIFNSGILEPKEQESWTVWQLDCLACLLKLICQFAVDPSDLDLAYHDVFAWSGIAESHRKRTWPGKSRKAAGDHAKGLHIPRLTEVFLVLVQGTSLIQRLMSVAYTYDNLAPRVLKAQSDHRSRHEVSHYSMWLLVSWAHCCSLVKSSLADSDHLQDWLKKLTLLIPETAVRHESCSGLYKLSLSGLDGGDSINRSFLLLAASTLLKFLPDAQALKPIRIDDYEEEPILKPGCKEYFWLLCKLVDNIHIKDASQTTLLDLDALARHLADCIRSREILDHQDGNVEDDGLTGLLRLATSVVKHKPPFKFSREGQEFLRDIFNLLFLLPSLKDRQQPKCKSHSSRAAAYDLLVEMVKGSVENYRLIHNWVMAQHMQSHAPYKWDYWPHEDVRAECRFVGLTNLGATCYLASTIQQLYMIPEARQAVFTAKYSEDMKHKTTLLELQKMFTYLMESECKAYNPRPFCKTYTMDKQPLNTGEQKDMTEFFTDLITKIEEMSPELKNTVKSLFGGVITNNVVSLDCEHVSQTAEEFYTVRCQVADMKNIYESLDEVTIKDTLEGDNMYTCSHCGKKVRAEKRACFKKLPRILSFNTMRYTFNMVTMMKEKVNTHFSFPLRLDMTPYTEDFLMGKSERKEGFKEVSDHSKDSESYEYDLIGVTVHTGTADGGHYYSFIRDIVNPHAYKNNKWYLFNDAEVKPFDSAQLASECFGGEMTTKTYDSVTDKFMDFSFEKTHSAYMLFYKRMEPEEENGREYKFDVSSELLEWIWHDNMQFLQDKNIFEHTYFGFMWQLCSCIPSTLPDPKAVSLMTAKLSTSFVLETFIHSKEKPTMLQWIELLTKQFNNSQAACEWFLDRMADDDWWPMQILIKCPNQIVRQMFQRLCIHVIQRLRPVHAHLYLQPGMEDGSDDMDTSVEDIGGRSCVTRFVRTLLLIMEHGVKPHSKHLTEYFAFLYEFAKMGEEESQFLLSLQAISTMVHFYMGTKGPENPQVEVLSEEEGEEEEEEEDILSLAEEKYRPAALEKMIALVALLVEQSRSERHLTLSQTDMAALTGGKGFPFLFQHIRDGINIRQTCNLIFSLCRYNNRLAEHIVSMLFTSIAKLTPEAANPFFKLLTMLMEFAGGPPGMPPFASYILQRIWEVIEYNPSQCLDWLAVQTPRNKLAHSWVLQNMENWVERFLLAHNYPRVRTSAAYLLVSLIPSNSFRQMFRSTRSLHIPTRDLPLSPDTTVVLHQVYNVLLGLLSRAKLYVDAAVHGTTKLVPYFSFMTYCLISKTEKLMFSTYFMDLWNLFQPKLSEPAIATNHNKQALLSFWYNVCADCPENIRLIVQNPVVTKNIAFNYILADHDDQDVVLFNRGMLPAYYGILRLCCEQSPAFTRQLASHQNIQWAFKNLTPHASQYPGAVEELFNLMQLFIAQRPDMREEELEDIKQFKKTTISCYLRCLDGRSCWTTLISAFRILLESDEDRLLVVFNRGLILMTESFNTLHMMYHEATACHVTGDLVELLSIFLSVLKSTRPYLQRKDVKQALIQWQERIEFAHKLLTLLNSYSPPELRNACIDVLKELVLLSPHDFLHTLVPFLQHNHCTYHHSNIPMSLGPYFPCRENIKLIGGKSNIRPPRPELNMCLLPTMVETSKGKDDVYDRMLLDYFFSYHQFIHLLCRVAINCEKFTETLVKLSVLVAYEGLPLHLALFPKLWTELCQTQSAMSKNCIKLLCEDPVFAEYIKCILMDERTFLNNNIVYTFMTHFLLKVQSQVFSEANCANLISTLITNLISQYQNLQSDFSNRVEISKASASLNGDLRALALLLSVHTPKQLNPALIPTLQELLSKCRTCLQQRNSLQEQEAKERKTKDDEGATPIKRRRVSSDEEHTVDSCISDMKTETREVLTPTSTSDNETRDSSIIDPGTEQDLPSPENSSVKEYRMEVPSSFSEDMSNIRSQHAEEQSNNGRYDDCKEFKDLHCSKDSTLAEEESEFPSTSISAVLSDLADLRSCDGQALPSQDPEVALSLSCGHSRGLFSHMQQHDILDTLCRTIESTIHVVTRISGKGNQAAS
UniProt Q9UPU5, 1-24: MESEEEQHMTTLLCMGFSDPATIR
UniProt Q86UV5, 1004-1028: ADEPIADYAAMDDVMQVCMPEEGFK

What was measured:
[1] = compound: ClCC(=O)N[C@@H]1CCCc2ccccc12; assay: log2 mean competition ratio of IA-DTB cysteine labelling (DMSO/compound) (log2 ratio); higher = stronger cysteine engagement by compound; conditions: treatment time: 4 h, cell line lysate: HEK293T
Method: (§1)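 IA-DTB competitive cysteine chemoproteomics in HEK293T RIPA lysate. Lysates were treated with compound 29 or 30 at 50 or 200 µM for 4 h, then IA-DTB (500 µM, 1 h), trypsin-digested, NeutrAvidin-enriched and analysed by diaPASEF. Competition ratio = intensity DMSO / intensity compound (n=4 treated, n=64 DMSO); binding: mean log2 CR ≥ 1 and p ≤ 0.05 plus QC filters. Target is the cysteine site.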

[2] = compound: ClCC(=O)N[C@H]1CCCc2ccccc12; assay: as above; conditions: treatment time: 4 h, cell line lysate: HEK293T
Method: as §1

UQCRH C37 (UniProt P07919)
log2 mean competition ratio ([1]; 50 µM): -0.0544
log2 mean competition ratio ([1]; 200 µM): 0.197
log2 mean competition ratio ([2]; 50 µM): 0.251
log2 mean competition ratio ([2]; 200 µM): 0.389

VPS16 C817 (UniProt Q9H269)
log2 mean competition ratio ([1]; 50 µM): 0.132
log2 mean competition ratio ([1]; 200 µM): -0.263
log2 mean competition ratio ([2]; 50 µM): 0.472
log2 mean competition ratio ([2]; 200 µM): -0.708

USP9X C864 (UniProt Q93008)
log2 mean competition ratio ([1]; 50 µM): -0.0192
log2 mean competition ratio ([1]; 200 µM): -0.156
log2 mean competition ratio ([2]; 50 µM): -0.294
log2 mean competition ratio ([2]; 200 µM): -0.086

USP22 C494 (UniProt Q9UPT9)
log2 mean competition ratio ([1]; 50 µM): -0.153
log2 mean competition ratio ([1]; 200 µM): 0.549
log2 mean competition ratio ([2]; 50 µM): 0.101
log2 mean competition ratio ([2]; 200 µM): 0.405

USP9Y C2294
log2 mean competition ratio ([1]; 50 µM): -0.0753
log2 mean competition ratio ([1]; 200 µM): -0.127
log2 mean competition ratio ([2]; 50 µM): -0.429
log2 mean competition ratio ([2]; 200 µM): -0.0893

VDAC3 C36 (UniProt Q9Y277)
log2 mean competition ratio ([1]; 50 µM): 0.0146
log2 mean competition ratio ([1]; 200 µM): -0.171
log2 mean competition ratio ([2]; 50 µM): -0.358
log2 mean competition ratio ([2]; 200 µM): -0.24

USP34 C132 (UniProt Q70CQ2)
log2 mean competition ratio ([1]; 50 µM): 0.308
log2 mean competition ratio ([1]; 200 µM): 0.21
log2 mean competition ratio ([2]; 50 µM): -0.0646
log2 mean competition ratio ([2]; 200 µM): 0.255

VPS26B C334 (UniProt Q4G0F5)
log2 mean competition ratio ([1]; 50 µM): -0.156
log2 mean competition ratio ([1]; 200 µM): 0.191
log2 mean competition ratio ([2]; 50 µM): -0.253
log2 mean competition ratio ([2]; 200 µM): 0.0653

UPF2 C687 (UniProt Q9HAU5)
log2 mean competition ratio ([1]; 50 µM): 0.0353
log2 mean competition ratio ([1]; 200 µM): 0.00341
log2 mean competition ratio ([2]; 50 µM): -0.104
log2 mean competition ratio ([2]; 200 µM): -0.217

UHRF2 C14 (UniProt Q96PU4)
log2 mean competition ratio ([1]; 50 µM): 0.076
log2 mean competition ratio ([1]; 200 µM): 0.138
log2 mean competition ratio ([2]; 50 µM): -0.348
log2 mean competition ratio ([2]; 200 µM): -0.0818

UNC45A C535 (UniProt Q9H3U1)
log2 mean competition ratio ([1]; 50 µM): 0.247
log2 mean competition ratio ([1]; 200 µM): 0.246
log2 mean competition ratio ([2]; 50 µM): -0.669
log2 mean competition ratio ([2]; 200 µM): 0.144

UPF2 C315 (UniProt Q9HAU5)
log2 mean competition ratio ([1]; 50 µM): -0.263
log2 mean competition ratio ([1]; 200 µM): -0.344
log2 mean competition ratio ([2]; 50 µM): 0.307
log2 mean competition ratio ([2]; 200 µM): -0.21

UBR5 C2314 (UniProt O95071)
log2 mean competition ratio ([1]; 50 µM): -0.174
log2 mean competition ratio ([1]; 200 µM): -0.153
log2 mean competition ratio ([2]; 50 µM): 0.0934
log2 mean competition ratio ([2]; 200 µM): -0.197

UQCRC2 C125 (UniProt P22695)
log2 mean competition ratio ([1]; 50 µM): 0.0788
log2 mean competition ratio ([1]; 200 µM): -0.337
log2 mean competition ratio ([2]; 50 µM): 0.0805
log2 mean competition ratio ([2]; 200 µM): -0.353

UBR4 C953 (UniProt Q5T4S7)
log2 mean competition ratio ([1]; 50 µM): -0.156
log2 mean competition ratio ([1]; 200 µM): 0.0484
log2 mean competition ratio ([2]; 50 µM): -0.164
log2 mean competition ratio ([2]; 200 µM): -0.0307

USP11 C769 (UniProt P51784)
log2 mean competition ratio ([1]; 50 µM): -0.0782
log2 mean competition ratio ([1]; 200 µM): 0.176
log2 mean competition ratio ([2]; 50 µM): -0.588
log2 mean competition ratio ([2]; 200 µM): -0.115

USP24 C1859 (UniProt Q9UPU5)
log2 mean competition ratio ([1]; 50 µM): -0.0392
log2 mean competition ratio ([1]; 200 µM): -0.173
log2 mean competition ratio ([2]; 50 µM): -0.0312
log2 mean competition ratio ([2]; 200 µM): -0.294

USP24 C14 (UniProt Q9UPU5)
log2 mean competition ratio ([1]; 50 µM): -0.00706
log2 mean competition ratio ([1]; 200 µM): -0.00448
log2 mean competition ratio ([2]; 50 µM): 0.43
log2 mean competition ratio ([2]; 200 µM): -0.384

USPL1 C534
log2 mean competition ratio ([1]; 50 µM): -0.298
log2 mean competition ratio ([1]; 200 µM): -0.0185
log2 mean competition ratio ([2]; 50 µM): -0.179
log2 mean competition ratio ([2]; 200 µM): -0.181

UTRN C3076 (UniProt P46939)
log2 mean competition ratio ([1]; 50 µM): 0.228
log2 mean competition ratio ([1]; 200 µM): -0.165
log2 mean competition ratio ([2]; 50 µM): 1.01
log2 mean competition ratio ([2]; 200 µM): 0.134

USP28 C142 (UniProt Q96RU2)
log2 mean competition ratio ([1]; 50 µM): -0.0536
log2 mean competition ratio ([1]; 200 µM): 0.0966
log2 mean competition ratio ([2]; 50 µM): 0.452
log2 mean competition ratio ([2]; 200 µM): 0.133

VCP C105 (UniProt P55072)
log2 mean competition ratio ([1]; 50 µM): 0.143
log2 mean competition ratio ([1]; 200 µM): -0.404
log2 mean competition ratio ([2]; 50 µM): 0.293
log2 mean competition ratio ([2]; 200 µM): -0.122

UPF1 C374 (UniProt Q92900)
log2 mean competition ratio ([1]; 50 µM): -0.0572
log2 mean competition ratio ([1]; 200 µM): 0.0386
log2 mean competition ratio ([2]; 50 µM): -0.47
log2 mean competition ratio ([2]; 200 µM): 0.00592

USP34 C1674 (UniProt Q70CQ2)
log2 mean competition ratio ([2]; 50 µM): -0.133
log2 mean competition ratio ([2]; 200 µM): 0.0746

USP16 C509 (UniProt Q9Y5T5)
log2 mean competition ratio ([1]; 50 µM): -0.0456
log2 mean competition ratio ([1]; 200 µM): -0.166
log2 mean competition ratio ([2]; 50 µM): -0.0446
log2 mean competition ratio ([2]; 200 µM): -0.0912

USP48 C1021 (UniProt Q86UV5)
log2 mean competition ratio ([1]; 50 µM): -0.241
log2 mean competition ratio ([1]; 200 µM): -0.416
log2 mean competition ratio ([2]; 50 µM): -0.295
log2 mean competition ratio ([2]; 200 µM): -0.624

VPS13B C3937 (UniProt Q7Z7G8)
log2 mean competition ratio ([1]; 50 µM): 0.137
log2 mean competition ratio ([1]; 200 µM): 0.0448
log2 mean competition ratio ([2]; 50 µM): -0.102
log2 mean competition ratio ([2]; 200 µM): 0.406

UBR5 C2094 (UniProt O95071)
log2 mean competition ratio ([2]; 50 µM): 0.0145
log2 mean competition ratio ([2]; 200 µM): 0.0731

USP9X C673 (UniProt Q93008)
log2 mean competition ratio ([2]; 50 µM): 0.0666
log2 mean competition ratio ([2]; 200 µM): -0.15

UVRAG C239 (UniProt Q9P2Y5)
log2 mean competition ratio ([2]; 50 µM): 0.415

UBXN2B C127 (UniProt Q14CS0)
log2 mean competition ratio ([2]; 200 µM): 0.131

UTP14A C380 (UniProt Q9BVJ6)
log2 mean competition ratio ([1]; 50 µM): -0.1
log2 mean competition ratio ([1]; 200 µM): -0.0275
log2 mean competition ratio ([2]; 50 µM): 0.0167
log2 mean competition ratio ([2]; 200 µM): 0.402

UTP6 C175 (UniProt Q9NYH9)
log2 mean competition ratio ([2]; 50 µM): 0.183
log2 mean competition ratio ([2]; 200 µM): -0.103

UIMC1 C601 (UniProt Q96RL1)
log2 mean competition ratio ([1]; 50 µM): -0.0662
log2 mean competition ratio ([1]; 200 µM): 0.12
log2 mean competition ratio ([2]; 50 µM): 0.322
log2 mean competition ratio ([2]; 200 µM): 0.144

ULBP3 C67
log2 mean competition ratio ([2]; 50 µM): 0.21
log2 mean competition ratio ([2]; 200 µM): -0.0638

USP9X C577 (UniProt Q93008)
log2 mean competition ratio ([2]; 50 µM): -0.224
log2 mean competition ratio ([2]; 200 µM): 0.0835

UQCRC1 C410 (UniProt P31930)
log2 mean competition ratio ([2]; 50 µM): -0.121
log2 mean competition ratio ([2]; 200 µM): 0.0173

USP3 C157 (UniProt Q9Y6I4)
log2 mean competition ratio ([2]; 50 µM): -0.1
log2 mean competition ratio ([2]; 200 µM): 0.724

USP24 C1516 (UniProt Q9UPU5)
log2 mean competition ratio ([1]; 50 µM): 0.242
log2 mean competition ratio ([1]; 200 µM): 0.461
log2 mean competition ratio ([2]; 50 µM): 0.38
log2 mean competition ratio ([2]; 200 µM): 0.105

UHRF1 C497 (UniProt Q96T88)
log2 mean competition ratio ([1]; 50 µM): -0.195
log2 mean competition ratio ([1]; 200 µM): 0.0573
log2 mean competition ratio ([2]; 50 µM): -0.153
log2 mean competition ratio ([2]; 200 µM): 0.0505

VARS2 C713
log2 mean competition ratio ([2]; 50 µM): -0.454
log2 mean competition ratio ([2]; 200 µM): 0.126

USP9X C1771 (UniProt Q93008)
log2 mean competition ratio ([1]; 50 µM): -0.333
log2 mean competition ratio ([1]; 200 µM): 0.117
log2 mean competition ratio ([2]; 50 µM): -0.00524
log2 mean competition ratio ([2]; 200 µM): 0.0193

USP36 C302 (UniProt Q9P275)
log2 mean competition ratio ([2]; 50 µM): -0.0954
log2 mean competition ratio ([2]; 200 µM): 0.0878

VPS13B C3148 (UniProt Q7Z7G8)
log2 mean competition ratio ([1]; 50 µM): -0.361
log2 mean competition ratio ([1]; 200 µM): 0.0191
log2 mean competition ratio ([2]; 50 µM): 0.165
log2 mean competition ratio ([2]; 200 µM): -0.127

USP34 C741 (UniProt Q70CQ2)
log2 mean competition ratio ([2]; 50 µM): -0.182
log2 mean competition ratio ([2]; 200 µM): 0.991

VPS13C C2159 (UniProt Q709C8)
log2 mean competition ratio ([1]; 50 µM): 0.562
log2 mean competition ratio ([2]; 50 µM): 0.377
log2 mean competition ratio ([2]; 200 µM): 0.751

VPS11 C734 (UniProt Q9H270)
log2 mean competition ratio ([2]; 50 µM): -0.93
log2 mean competition ratio ([2]; 200 µM): 0.0284

VPS33A C163 (UniProt Q96AX1)
log2 mean competition ratio ([2]; 50 µM): -0.339
log2 mean competition ratio ([2]; 200 µM): -0.0332
